Results are given in words; binding and its absence hold for the method and conditions named. In cells and extracts the contact can be indirect. Some results given as binding are weak or reduced against the parent protein; the word gives no strength.
Assays:
[1] = target: E1A binding protein P300 (human (endogenous in U87MG, T98G)) (UniProt Q09472); assay: co-IP; P300 and REST in lysates of different GBM cells; IP buffer 50 mM Tris-HCl pH 8.0, 150 mM NaCl, 0.05 mM EDTA, 1% NP40, 10% glycerol; also U87MG and T98G cells treated with DMSO or C646 for 24 h (C646 reduced the interaction)
[2] = target: flag-tagged P300 truncate: domain containing HAT activity (amino acids 1069-1942) (UniProt Q09472); assay: co-IP; flag-tagged P300 truncates transfected into U87MG cells; lysate immunoprecipitated with anti-flag or REST antibody and protein A/G agarose; IP buffer 50 mM Tris-HCl pH 8.0, 150 mM NaCl, 0.05 mM EDTA, 1% NP40, 10% glycerol

Amino acid sequences for entries named in this document (tags omitted). A change or cut given only in a name is not applied to a line headed by its entry. Chains listed by the source or under a name are the forms on record and can include a tag or linker. Residues count along the entry.
UniProt Q09472: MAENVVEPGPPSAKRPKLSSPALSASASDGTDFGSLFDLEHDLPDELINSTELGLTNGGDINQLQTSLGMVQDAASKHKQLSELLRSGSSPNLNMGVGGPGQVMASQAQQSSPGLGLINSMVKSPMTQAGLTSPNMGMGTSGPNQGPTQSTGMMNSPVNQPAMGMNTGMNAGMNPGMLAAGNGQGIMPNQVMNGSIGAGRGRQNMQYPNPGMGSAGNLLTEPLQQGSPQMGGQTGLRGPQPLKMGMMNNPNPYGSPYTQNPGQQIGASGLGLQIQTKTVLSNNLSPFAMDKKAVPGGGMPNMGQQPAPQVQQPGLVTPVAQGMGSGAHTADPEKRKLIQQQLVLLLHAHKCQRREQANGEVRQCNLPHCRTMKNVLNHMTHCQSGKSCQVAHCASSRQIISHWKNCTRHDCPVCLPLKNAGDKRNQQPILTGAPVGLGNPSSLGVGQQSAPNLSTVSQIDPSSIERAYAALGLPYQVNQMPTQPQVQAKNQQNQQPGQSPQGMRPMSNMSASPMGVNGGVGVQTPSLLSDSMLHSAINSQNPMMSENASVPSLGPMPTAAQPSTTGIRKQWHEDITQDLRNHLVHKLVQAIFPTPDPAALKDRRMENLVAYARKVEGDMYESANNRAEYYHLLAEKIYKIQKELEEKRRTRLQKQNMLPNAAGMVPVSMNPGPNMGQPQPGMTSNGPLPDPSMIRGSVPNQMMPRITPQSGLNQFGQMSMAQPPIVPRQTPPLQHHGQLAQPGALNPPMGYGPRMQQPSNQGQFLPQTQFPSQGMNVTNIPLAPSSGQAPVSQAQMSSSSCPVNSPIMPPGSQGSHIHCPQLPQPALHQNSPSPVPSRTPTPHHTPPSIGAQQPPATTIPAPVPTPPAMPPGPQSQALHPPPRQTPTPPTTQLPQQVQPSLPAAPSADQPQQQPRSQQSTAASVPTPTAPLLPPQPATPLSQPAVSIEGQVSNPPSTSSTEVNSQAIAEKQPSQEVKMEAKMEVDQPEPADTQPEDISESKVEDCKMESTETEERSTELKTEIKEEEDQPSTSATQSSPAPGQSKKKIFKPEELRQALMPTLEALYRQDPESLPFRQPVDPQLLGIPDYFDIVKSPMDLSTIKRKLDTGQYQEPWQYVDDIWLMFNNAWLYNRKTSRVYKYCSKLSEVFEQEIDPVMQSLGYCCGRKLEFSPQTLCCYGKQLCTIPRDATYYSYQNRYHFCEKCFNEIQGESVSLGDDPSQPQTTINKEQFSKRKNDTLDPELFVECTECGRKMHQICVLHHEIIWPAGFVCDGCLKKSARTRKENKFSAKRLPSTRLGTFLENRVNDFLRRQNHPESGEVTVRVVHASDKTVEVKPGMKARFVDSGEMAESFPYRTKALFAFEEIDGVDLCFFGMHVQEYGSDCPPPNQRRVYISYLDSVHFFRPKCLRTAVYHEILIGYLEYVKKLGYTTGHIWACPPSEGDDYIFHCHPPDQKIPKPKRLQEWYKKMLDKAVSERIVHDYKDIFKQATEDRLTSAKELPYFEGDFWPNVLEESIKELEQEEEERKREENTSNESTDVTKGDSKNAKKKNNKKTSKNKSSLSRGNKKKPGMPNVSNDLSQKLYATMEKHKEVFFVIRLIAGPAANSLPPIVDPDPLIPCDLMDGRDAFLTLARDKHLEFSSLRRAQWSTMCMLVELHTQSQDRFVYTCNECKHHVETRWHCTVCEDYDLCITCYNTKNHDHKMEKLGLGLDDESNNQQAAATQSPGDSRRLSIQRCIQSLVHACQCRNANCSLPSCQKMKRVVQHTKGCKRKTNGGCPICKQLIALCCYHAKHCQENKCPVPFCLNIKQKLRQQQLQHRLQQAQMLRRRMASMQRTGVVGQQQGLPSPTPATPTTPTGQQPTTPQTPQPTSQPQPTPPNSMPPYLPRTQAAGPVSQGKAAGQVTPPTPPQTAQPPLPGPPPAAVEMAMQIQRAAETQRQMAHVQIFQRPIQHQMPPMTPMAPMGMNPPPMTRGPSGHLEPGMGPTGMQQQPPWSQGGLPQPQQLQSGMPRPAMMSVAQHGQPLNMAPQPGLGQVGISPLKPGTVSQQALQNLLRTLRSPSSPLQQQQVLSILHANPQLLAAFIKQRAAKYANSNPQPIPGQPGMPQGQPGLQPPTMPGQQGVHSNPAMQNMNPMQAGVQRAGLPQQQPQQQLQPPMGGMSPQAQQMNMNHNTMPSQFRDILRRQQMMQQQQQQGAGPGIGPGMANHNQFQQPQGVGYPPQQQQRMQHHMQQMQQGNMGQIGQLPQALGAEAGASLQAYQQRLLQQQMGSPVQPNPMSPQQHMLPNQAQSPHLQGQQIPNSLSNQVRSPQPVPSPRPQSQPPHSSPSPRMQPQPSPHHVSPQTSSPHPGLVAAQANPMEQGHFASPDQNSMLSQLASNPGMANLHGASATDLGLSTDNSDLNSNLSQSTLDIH
flag-tagged P300 truncate: domain containing HAT activity (amino acids 1069-1942): residues 1069-1942 of Q09472

binding [1]: binds
binding [2]: binds
B1: Repressor element-1 silencing transcription factor (REST) (protein, UniProt Q13127 1-1097)
chain: MATQVMGQSSGGGGLFTSSGNIGMALPNDMYDLHDLSKAELAAPQLIMLANVALTGEVNGSCCDYLVGEERQMAELMPVGDNNFSDSEEGEGLEESADIKGEPHGLENMELRSLELSVVEPQPVFEASGAPDIYSSNKDLPPETPGAEDKGKSSKTKPFRCKPCQYEAESEEQFVHHIRVHSAKKFFVEESAEKQAKARESGSSTAEEGDFSKGPIRCDRCGYNTNRYDHYTAHLKHHTRAGDNERVYKCIICTYTTVSEYHWRKHLRNHFPRKVYTCGKCNYFSDRKNNYVQHVRTHTGERPYKCELCPYSSSQKTHLTRHMRTHSGEKPFKCDQCSYVASNQHEVTRHARQVHNGPKPLNCPHCDYKTADRSNFKKHVELHVNPRQFNCPVCDYAASKKCNLQYHFKSKHPTCPNKTMDVSKVKLKKTKKREADLPDNITNEKTEIEQTKIKGDVAGKKNEKSVKAEKRDVSKEKKPSNNVSVIQVTTRTRKSVTEVKEMDVHTGSNSEKFSKTKKSKRKLEVDSHSLHGPVNDEESSTKKKKKVESKSKNNSQEVPKGDSKVEENKKQNTCMKKSTKKKTLKNKSSKKSSKPPQKEPVEKGSAQMDPPQMGPAPTEAVQKGPVQVEPPPPMEHAQMEGAQIRPAPDEPVQMEVVQEGPAQKELLPPVEPAQMVGAQIVLAHMELPPPMETAQTEVAQMGPAPMEPAQMEVAQVESAPMQVVQKEPVQMELSPPMEVVQKEPVQIELSPPMEVVQKEPVKIELSPPIEVVQKEPVQMELSPPMGVVQKEPAQREPPPPREPPLHMEPISKKPPLRKDKKEKSNMQSERARKEQVLIEVGLVPVKDSWLLKESVSTEDLSPPSPPLPKENLREEASGDQKLLNTGEGNKEAPLQKVGAEEADESLPGLAANINESTHISSSGQNLNTPEGETLNGKHQTDSIVCEMKMDTDQNTRENLTGINSTVEEPVSPMLPPSAVEEREAVSKTALASPPATMAANESQEIDEDEGIHSHEGSDLSDNMSEGSDDSGLHGARPVPQESSRKNAKEALAVKAAKGDFVCIFCDRSFRKGKDYSKHLNRHLVNVYYLEEAAQGQE

From PMC11488581
